± gives the standard deviation. The list shows a part of the results, in another mix than the full data. Many of these values have a large error. The list shows a part of the results.
Columns and labels:
[1] = test system: MILI (PIWIL2) piRISC loaded with L1MC piRNA (26 nt); assay: pre-steady-state target cleavage rate (min^-1); higher = faster piRNA-guided slicing of the target; conditions: guide: L1MC piRNA 5'p-UAACUAAAUACUAUGCAAGCUGUAGG
Summary of the method: (§1)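 Sequencing of uncleaved targets, normalised to depth and to weakly complementary targets, was the readout of this Cleave-'n-Seq assay. A transcribed, DNA-blocked target RNA library (0.1 nM) was mixed with 1 nM active affinity-purified piRISC carrying one synthetic guide, with or without 500 nM GTSF1 partner protein, in HEPES–potassium acetate buffer at 33 °C for 0–8 or 0–960 min. Three trials were pooled, k3 was capped at 0.0001 min^-1, and a burst-and-steady-state fit gave the pre-steady-state cleavage rate.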

[2] = test system: EfPiwi piRISC loaded with L1MC piRNA (26 nt); assay: pre-steady-state target cleavage rate (min^-1); guide: L1MC piRNA 5'p-UAACUAAAUACUAUGCAAGCUGUAGG; MIWI and MILI are mouse PIWI proteins and EfPiwi is from a freshwater sponge; tags in brackets are library labels; higher = faster piRNA-guided slicing of the target
Summary of the method: as §1

[3] = auxiliary factor: none (no GTSF1)
[4] = auxiliary factor: 500 nM Ephydatia muelleri Gtsf1
[5] = auxiliary factor: 500 nM mouse GTSF1
[6] = auxiliary factor: none (no Gtsf1)

| Sequence | pre-steady-state target cleavage rate [1, 3] | pre-steady-state target cleavage rate [2, 4] | pre-steady-state target cleavage rate [1, 5] | pre-steady-state target cleavage rate [2, 6] |
| --- | --- | --- | --- | --- |
| UCCUGGAACAGCUUGCAUAGUAUUUUGUAA | 0.00166 ± 0.0048 | 0.00148 ± 0.0043 |  |  |
| UCCUGGAACAGCUUGCAAUCUAUUUAGUUA | 0.00133 ± 0.0048 | 0.00116 ± 0.0049 |  |  |
| UCCUGGUACAGCUUGCAUAGUAUUUAGUAA |  | 0.0108 ± 0.0041 | 0.283 ± 0.036 |  |
| UCCUGGUACAGCUUGCAUAGAAUUUUGUUA | 0.00193 ± 0.0064 | 0.00212 ± 0.0026 |  |  |
| UCCUGCUAACAGCUUGCAUAGUAUUUAGUUA |  | 0.0114 ± 0.0038 | 0.307 ± 0.033 |  |
| UCCUCCUACACGUUGCAUAGUAUUUAGUUA |  | 0.136 ± 0.035 | 0.321 ± 0.021 |  |
| UCCUGGAUCAGCUUCGCAUAGUAUUUAGUUA |  | 0.0389 ± 0.009 | 0.309 ± 0.02 |  |
| UCCUGGAUGUCGAUGCAUAGUAAAAAGUUA | 0.000708 ± 0.0084 | 0.000107 ± 0.047 |  |  |
| UCCUGGAUGUCGAACGUUAGUAUUUAGUUUA |  | 0.000485 ± 0.011 | 0.000162 ± 0.023 |  |
| UCCUGGUACAGCUUAGCAUAGUAUUUAGUUA |  | 0.0188 ± 0.0058 | 0.296 ± 0.018 |  |
| UCCUGGAUCAGCUUGCAUUGUAUUUAGAAA | 0.00151 ± 0.0039 | 0.00264 ± 0.0021 |  |  |
| UCCUGGAUGUCGAUGCAAAGAAUUUAGUUA | 0.000292 ± 0.013 | 0.000236 ± 0.01 |  |  |
| UCCUGGUACAGCUUGCAUACUAUUUACUUA | 0.00287 ± 0.0037 | 0.00126 ± 0.006 |  |  |
| UCCUGGAUCACCUUGCAUAGUAUUUACUUA | 0.00232 ± 0.004 | 0.000992 ± 0.0061 |  |  |
| UCCUGGAUGUCGAAGCAUAGUAUUUACAAA | 0.000181 ± 0.026 | 0.000614 ± 0.0098 |  |  |
| UCCUGGAUGAGCUUGCAUAGUUAUUACAAA | 0.000399 ± 0.014 |  |  | 0.000275 ± 0.024 |
| UCCUGGAUCAGCUAGCAUAGUAUUUACUUA | 0.00263 ± 0.0029 | 0.00117 ± 0.004 |  |  |
| UCCUCCUACAGCUUUGCAUAGUAUUUAGUUA |  | 0.123 ± 0.036 | 0.291 ± 0.017 |  |
| UCCUGGAUGUCGAACGAUAGGUAUUUAGUUA |  |  | 0.000197 ± 0.016 | 0.000275 ± 0.016 |
| UCCUGCUGACAGCUUGCAUAGUAUUUAGUUA |  | 0.0486 ± 0.013 | 0.327 ± 0.025 |  |

Reformatted tab-delimited: entries from further up.
Sequence	pre-steady-state target cleavage rate [1, 3]	pre-steady-state target cleavage rate [2, 4]	pre-steady-state target cleavage rate [1, 5]	pre-steady-state target cleavage rate [2, 6]
UCCUCCUACACGUUGCAUAGUAUUUAGUUA		0.136 ± 0.035	0.321 ± 0.021	
UCCUGGAUGUCGAUGCAAAGAAUUUAGUUA	0.000292 ± 0.013	0.000236 ± 0.01		
UCCUGGAUGAGCUUGCAUAGUUAUUACAAA	0.000399 ± 0.014			0.000275 ± 0.024

Source: the supplement of paper PMC10338343
